Laboratory results published in patent publication US20260001914A1, “MACROCYCLIC PEPTIDES TARGETING KRAS” (Merck Sharp & Dohme LLC, priority 2022, published 2026).
For at least one compound, name, drawing or mass did not settle the structure. *1 amine or outer side, *2 acyl side, *3 side chain or, on linkers, in order; H or OH if unused. Where a SMILES comes first, the peptide text is derived from it. [ ]: non-standard residue; d: D form. cBu(1-CO,cis-3-CH2NH) = O=C([C@H]1C[C@@H](CN[*:1])C1)[*:2]; NMeNva(5-imidazol-1-yl) = CN[C@@H](CCCn1ccnc1)C(=O)O; Phe(4-guanidino) = N=C(N)Nc1ccc(C[C@H](N)C(=O)O)cc1; X18 = CNC(=N)N(C)c1ccc(C[C@H](N[*:1])C(=O)[*:2])cc1; Ala(pyrimidin-5-yl) = N[C@@H](Cc1cncnc1)C(=O)O; NMe3Pal(6-Me) = CN[C@@H](Cc1ccc(C)nc1)C(=O)O; X8 = CN([C@@H](Cc1ccc(F)nc1)C(=O)[*:2])[*:1]; Ala(thiazol-5-yl) = N[C@@H](Cc1cncs1)C(=O)O; Phe(2-F) = N[C@@H](Cc1ccccc1F)C(=O)O; NMe3Pal = CN[C@@H](Cc1cccnc1)C(=O)O; X1 = O=C(C12CC(CN[*:1])(C1)C2)[*:2]; NMeOrn(Me) = CNCCC[C@H](NC)C(=O)O; Ala(cPr) = N[C@@H](CC1CC1)C(=O)O; NMeF = CN[C@@H](Cc1ccccc1)C(=O)O; PhLac = O=C(O)[C@@H](O)Cc1ccccc1; 3Pal = N[C@@H](Cc1cccnc1)C(=O)O; X16 = O=C(C1CC(CN[*:1])C1)[*:2]; hLeu = CC(C)CC[C@H](N)C(=O)O; NMeA = CN[C@@H](C)C(=O)O; Nle = CCCC[C@H](N)C(=O)O

Sequences of proteins named here, by UniProt entry; tags and fusion partners are left off. A change or cut given only in a name is not applied to a line headed by its entry.
UniProt P01116: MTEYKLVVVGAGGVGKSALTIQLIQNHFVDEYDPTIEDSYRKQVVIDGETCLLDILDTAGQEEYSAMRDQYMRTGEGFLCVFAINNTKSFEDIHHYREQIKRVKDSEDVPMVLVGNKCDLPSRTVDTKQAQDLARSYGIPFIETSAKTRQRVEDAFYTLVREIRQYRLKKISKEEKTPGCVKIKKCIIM

Target: phosphorylation levels of ERK1/2 in AsPC-1 (homozygous KRAS-G12D) cells (Homo sapiens, UniProt P01116, G12D)
Experiment: Cellular phospho-ERK assay in AsPC-1 cells (Alpha Screen), assay medium without fetal bovine serum;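 further: signal taken as phospho-ERK over total ERK per well, both detected in one multiplex bead assay, EC50 from four-parameter logistic fit of dose-response curves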
Type: cell-based
Details: phospho-ERK AlphaScreen, 18 h

CCCC[C@@H]1NC(=O)[C@H](Cc2cncnc2)NC(=O)[C@H](CCCNC(=N)N)NC(=O)[C@H](Cc2ccccc2)NC(=O)[C@H]2C[C@@H](CNC(=O)[C@H](Cc3ccccc3)N(C)C(=O)[C@H](CCCC)NC(=O)[C@H](Cc3ccc(OC)cc3)NC1=O)C2 [compound 355, cyclo(F-R-PyrimAla-Nle-TyrOMe-Nle-NMeF-c3amCb1c)] (cyclo(FR[Ala(pyrimidin-5-yl)][Nle]Y(Me)[Nle][NMeF][cBu(1-CO,cis-3-CH2NH)])) and CCCC[C@@H]1NC(=O)[C@H](Cc2cccnc2)NC(=O)[C@H](CCCNC(=N)N)NC(=O)[C@H](Cc2ccccc2)NC(=O)[C@H]2C[C@@H](CNC(=O)[C@H](Cc3ccccc3)N(C)C(=O)[C@H](CCCC)NC(=O)[C@H](Cc3ccc(OC)cc3)NC1=O)C2 [compound 353, cyclo(F-R-3Pal-Nle-TyrOMe-Nle-NMeF-c3amCb1c)] (cyclo(FR[3Pal][Nle]Y(Me)[Nle][NMeF][cBu(1-CO,cis-3-CH2NH)])) cannot be ordered by EC50: over 50.8 µM for the first, over 50.8 µM for the second.

CCCC[C@@H]1NC(=O)[C@H](Cc2cccnc2)NC(=O)CN(C)C(=O)[C@H](Cc2ccccc2)OC(=O)C23CC(CNC(=O)[C@H](Cc4cccnc4)N(C)C(=O)[C@H](CCCC)NC(=O)[C@H](Cc4ccccc4F)NC1=O)(C2)C3 (single isomer, unassigned) [compound 261, cyclo(FLac-Sar-3Pal-Nle-Phe2F-Nle-NMe3Pal-amBCP)] and CCCC[C@@H]1NC(=O)[C@H](Cc2cccnc2)NC(=O)[C@H](CCCn2ccnc2)N(C)C(=O)[C@H](Cc2ccccc2)OC(=O)C2CC(CNC(=O)[C@H](Cc3cccnc3)N(C)C(=O)[C@H](CCCC)NC(=O)[C@H](Cc3ccccc3F)NC1=O)C2 [compound 95, cyclo(FLac-NMeNvalmid-3Pal-Nle-Phe2F-Nle-NMe3Pal-c3amCblc)] (cyclo([3Pal][Nle][Phe(2-F)][Nle][NMe3Pal][X16][PhLac][NMeNva(5-imidazol-1-yl)])) cannot be ordered by EC50: over 50.8 µM for the first, over 50.8 µM for the second.

CCCC[C@@H]1NC(=O)[C@H](Cc2cncnc2)NC(=O)[C@H](CCCNC)N(C)C(=O)[C@H](Cc2ccccc2)NC(=O)[C@H]2C[C@@H](CNC(=O)[C@H](Cc3ccc(C)nc3)N(C)C(=O)[C@H](CCCC)NC(=O)[C@H](Cc3ccc(OC)cc3)NC1=O)C2 [compound 358, cyclo(F-NMeOmMe-PyrimAla-Nle-TyrOMe-Nle-NMe3Pal4Me-c3amCb1c)] (cyclo(F[NMeOrn(Me)][Ala(pyrimidin-5-yl)][Nle]Y(Me)[Nle][NMe3Pal(6-Me)][cBu(1-CO,cis-3-CH2NH)])) and CCCC[C@@H]1NC(=O)[C@H](Cc2cccnc2)NC(=O)[C@H](CCCNC)N(C)C(=O)[C@H](Cc2ccccc2)NC(=O)[C@H]2C[C@@H](CNC(=O)[C@H](Cc3ccc(C)nc3)N(C)C(=O)[C@H](CCCC)NC(=O)[C@H](Cc3ccc(OC)cc3)NC1=O)C2 [compound 357, cyclo(F-NMeOrMe-3Pal-Nle-TyrOMe-Nle-NMe3Pal4Me-c3amCblc)] (cyclo(F[NMeOrn(Me)][3Pal][Nle]Y(Me)[Nle][NMe3Pal(6-Me)][cBu(1-CO,cis-3-CH2NH)])) cannot be ordered by EC50: over 50.8 µM for the first, over 50.8 µM for the second.

CCCC[C@@H]1NC(=O)[C@H](Cc2ccc(N(C)C(=N)NC)cc2)NC(=O)[C@H](CCCNC)N(C)C(=O)[C@H](Cc2ccccc2)NC(=O)[C@H]2C[C@@H](CNC(=O)[C@H](Cc3ccc(C)nc3)N(C)C(=O)[C@H](CCCC)NC(=O)[C@H](Cc3ccc(OC)cc3)NC1=O)C2 [compound 359, cyclo(F-NMeOrMe-Phe4GnMeMe-Nle-TyrOMe-Nle-NMe3Pal4Me-c3amCblc)] (cyclo(F[NMeOrn(Me)][X18][Nle]Y(Me)[Nle][NMe3Pal(6-Me)][cBu(1-CO,cis-3-CH2NH)])) and CCCC[C@@H]1NC(=O)[C@H](Cc2ccc(NC(=N)N)cc2)NC(=O)[C@H](CCCNC(=N)N)NC(=O)[C@@H](Cc2ccccc2)NC(=O)[C@H]2C[C@@H](CNC(=O)[C@H](Cc3ccccc3)N(C)C(=O)[C@H](CCCC)NC(=O)[C@H](Cc3ccc(OC)cc3)NC1=O)C2 [compound 205, cyclo(dF-R-Phe4Gn-Nle-TyrOMe-Nle-NMeF-c3amCblc)] (cyclo([dF]R[Phe(4-guanidino)][Nle]Y(Me)[Nle][NMeF][cBu(1-CO,cis-3-CH2NH)])) cannot be ordered by EC50: over 50.8 µM for the first, over 50.8 µM for the second.

CCCC[C@@H]1NC(=O)[C@H](Cc2cncs2)NC(=O)[C@H](CCCNC(=N)N)NC(=O)[C@H](Cc2ccccc2)NC(=O)[C@H]2C[C@@H](CNC(=O)[C@H](Cc3ccccc3)N(C)C(=O)[C@H](CCCC)NC(=O)[C@H](Cc3ccc(OC)cc3)NC1=O)C2 [compound 354, cyclo(F-R-TZAla-Nle-TyrOMe-Nle-NMeF-c3amCblc)] (cyclo(FR[Ala(thiazol-5-yl)][Nle]Y(Me)[Nle][NMeF][cBu(1-CO,cis-3-CH2NH)])) and CCCC[C@@H]1NC(=O)[C@H](Cc2cccnc2)NC(=O)[C@H](CCCNC(=N)N)NC(=O)[C@H](Cc2cccnc2)NC(=O)[C@H]2C[C@@H](CNC(=O)[C@H](Cc3ccccc3)N(C)C(=O)[C@H](CCCC)NC(=O)[C@H](Cc3ccc(OC)cc3)NC1=O)C2 [compound 356, cyclo(3Pal-R-3Pal-Nle-TyrOMe-Nle-NMeF-c3amCblc)] (cyclo([3Pal]R[3Pal][Nle]Y(Me)[Nle][NMeF][cBu(1-CO,cis-3-CH2NH)])) cannot be ordered by EC50: over 50.8 µM for the first, over 50.8 µM for the second.

Going from CC(C)CC[C@@H]1NC(=O)[C@H](Cc2ccccc2F)NC(=O)[C@H](CC2CC2)NC(=O)[C@H](Cc2cccnc2)NC(=O)[C@H](C)N(C)C(=O)[C@H](Cc2ccccc2)OC(=O)C23CC(CNC(=O)[C@H](Cc4ccc(F)nc4)N(C)C1=O)(C2)C3 [compound 296, cyclo(FLac-NMeA-3Pal-cPrA-Phe2F-hL-NMe3Pal4F-amBCP)] (cyclo([3Pal][Ala(cPr)][Phe(2-F)][hLeu][X8][X1][PhLac][NMeA])) to CCCC[C@@H]1NC(=O)[C@H](Cc2cccnc2)NC(=O)CN(C)C(=O)[C@H](Cc2ccccc2)OC(=O)C23CC(CNC(=O)[C@H](Cc4cccnc4)N(C)C(=O)[C@H](CCCC)NC(=O)[C@H](Cc4ccccc4F)NC1=O)(C2)C3 (single isomer, unassigned) [compound 262, cyclo(FLac-Sar-3Pal-Nle-Phe2F-Nle-NMe3Pal-amBCP)], the EC50 rises from 1.74 µM to over 50.8 µM.
